Experimental data from patent US6465254, “Mutant loxP site and applications thereof” (Sumitomo Pharmaceuticals Company, Limited).
Where a protein sequence is shown, tags need not be part of it.

biological target: T1, Cre recombinase (UniProt P06956); assay: activity assay; conditions: self x self; intermediate 0; protein in a lysate after overexpression; variant of wild-type loxP; counted as no effect
T1 sequence (looked up, limits assumed): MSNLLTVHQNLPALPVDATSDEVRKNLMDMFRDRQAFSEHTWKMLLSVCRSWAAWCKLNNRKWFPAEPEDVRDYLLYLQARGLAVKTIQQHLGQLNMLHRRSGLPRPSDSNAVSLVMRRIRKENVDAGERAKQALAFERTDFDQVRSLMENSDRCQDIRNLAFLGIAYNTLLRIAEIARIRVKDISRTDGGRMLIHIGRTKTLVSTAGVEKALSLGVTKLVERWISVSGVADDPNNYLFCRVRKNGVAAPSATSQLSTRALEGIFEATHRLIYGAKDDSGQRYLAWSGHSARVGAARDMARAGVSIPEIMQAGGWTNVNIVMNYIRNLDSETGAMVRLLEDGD

Activity on this sequence (grade 0-9 final product), 0:
ATAACTTCGTATAATATATCCTATACGAAGTTAT (double strand) [mutant loxP #3172]

same assay, conditions: with wt loxP; intermediate 0; protein in a lysate after overexpression; variant of wild-type loxP; counted as no effect

Activity on this sequence (grade 0-9 final product), 0:
ATAACTTCGTATAAAGTATCCTATACGAAGTTAT (double strand) [mutant loxP #2272], ATAACTTCGTATAACGTATACTATACGAAGTTAT (double strand) [mutant loxP #2171], ATAACTTCGTATAATATATACTATACGAAGTTAT (double strand) [mutant loxP #3171], ATAACTTCGTATAATGCATACTATACGAAGTTAT (double strand) [mutant loxP #4171], ATAACTTCGTATAATGTGTACTATACGAAGTTAT (double strand) [mutant loxP #5171], ATAACTTCGTATAATGTTTCCTATACGAAGTTAT (double strand) [mutant loxP #5272]
